# Results from the supplement of paper PMC8551327.
# Where a name gives a salt, the structure may show the parent alone. The list shows a part of the results. Rule as the data show it: active = 1.25 or more and inactive = the rest. Most values come without repeats; read them as rough.
# Test system: Kcc2-LUC knock-in mouse primary cortical neurons (Kcc2 promoter reporter)
# Assay: Kcc2 promoter-driven luciferase activity relative to vehicle control (fold of vehicle (ratio)); higher = stronger Kcc2 promoter activation (Kcc2 expression enhancer)
# Settings: 100 nM; 48 h
row,SMILES,Kcc2 promoter-driven luciferase activity
1,C=C1C(=O)O[C@H]2[C@H]1[C@H](OC(=O)/C(C)=C\C)CC(=C)[C@@H]1[C@H](O)[C@H]3O[C@@]3(C)[C@@]12O [Eupatundin],inactive: 0.59
2,"N[C@@H](Cc1ccc2oc3cc(=O)c4ccccc4c-3nc2c1)C(=O)O [1,2-Benzo-8-(L-alanyl)-3-phenoxazone nitrate salt]",inactive: 0.79
3,COC(=O)c1[nH]c(=S)[nH]c(=O)c1-c1ccc(Cl)cc1,inactive: 1.08
4,COc1cc2c3c(n(C)c(=O)c2cc1OC)-c1cc2c(cc1C3=O)OCO2,inactive: 1.11
5,N#Cc1ccccc1NC(=O)C(=O)C(C(=O)c1ccccc1F)C1OC(=O)c2ccccc21 (stereo unspecified),inactive: 0.82
6,"CC(Cc1ccccc1)NC1=NCCO1 (stereo unspecified) [N-(1-Phenylpropan-2-yl)-4,5-dihydrooxazol-2-amine]",inactive: 0.97
7,O=C1C=C(N2CCNCC2)C(=O)c2c(O)ccc(O)c21 [2-(1-Piperazino)naphthazarin],inactive: 0.36
8,Cc1cc2c(c3oc(C4(C)OC4C4OC4C)cc(=O)c13)C(=O)c1c(O)c(C3CC(C)(N(C)C)C(O)C(C)O3)cc(C3CC(N(C)C)C(O)C(C)O3)c1C2=O (stereo unspecified) [Hedamycin],inactive: 0.29
9,CN(C)c1ccc(/C=C/C(=O)c2ccccc2)cc1Br [3-(3-Bromo-4-(dimethylamino)phenyl)-1-phenyl-2-propen-1-one],inactive: 1.06
10,C=C1C(=O)OC2C1CC1OC2C(C)CCC/C(C)=C\CCC1(C)O (stereo unspecified) [Eunicin],active: 1.33
11,O=C1Cc2c(-c3ccccc3)cc(-c3cccc(Cl)c3)nc2-c2ccccc2N1,inactive: 0.87

# Arranged by formula weight (low to high): 3 of the compounds above
row,SMILES,Kcc2 promoter-driven luciferase activity
7,O=C1C=C(N2CCNCC2)C(=O)c2c(O)ccc(O)c21 [2-(1-Piperazino)naphthazarin],inactive: 0.36
9,CN(C)c1ccc(/C=C/C(=O)c2ccccc2)cc1Br [3-(3-Bromo-4-(dimethylamino)phenyl)-1-phenyl-2-propen-1-one],inactive: 1.06
10,C=C1C(=O)OC2C1CC1OC2C(C)CCC/C(C)=C\CCC1(C)O (stereo unspecified) [Eunicin],active: 1.33
